## Primary screen of a compound library

The values are deposited in ChEMBL (CHEMBL3988442, “University of Dundee, Small-Polar-MMV Screening Library” (2021)).

Mtb growth Cornell: 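Whole-cell assay for inhibitors of Mycobacterium tuberculosis growth, labelled Cornell in the record; the read-out is not stated. The concentration is filed as 10 mM, unlikely as a test dose, so the dose is not known. Higher means stronger inhibition (inferred from two other growth screens of the library). About 53,000 compounds were tested under these conditions; 1.7% (about 900) showed 50% or more at least once.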
Mtb heat-shock: 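Assay on Mycobacterium tuberculosis, filed only as a heat shock assay from Cornell; the read-out is not stated. The concentration is filed as 10 mM, unlikely as a test dose, so the dose is not known. Higher reads as stronger inhibition (inferred: compounds with an IC50 in retests scored well above the rest). Size under these conditions: about 69,000 compounds, about 930 of them at 50% or above in at least one test.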

Each number is a percent effect as filed.
The controls that fix the scale are not given in the record; negative values are as filed.
This is an unselected part of the compounds tested.

With CCc1nn(-c2cc(Oc3ccccc3)nc(C)n2)c(N)c1C#N the screen gave Mtb growth Cornell: 14.05%; Mtb heat-shock: 12.66%. Result for Cc1nc(C)n(C2CCCN(C(=O)c3cn4c(C)cccc4n3)C2)n1 (stereo not shown) was Mtb growth Cornell: -23.99%; Mtb heat-shock: -10.24%. O=C(O)C(F)(F)F.O=C(O)C(F)(F)F.c1coc(CN2CCCn3c(CN4CCOCC4)nnc3C2)c1 gave Mtb growth Cornell: -0.4517%; Mtb heat-shock: 42.54%. With O=C1CC[C@H](C(=O)Nc2cnn(-c3ccccc3Br)c2)N1 the screen gave Mtb growth Cornell: -5.075%; Mtb heat-shock: 10.94%. For CCC(C)NC(=O)CCNC(=O)c1c[nH]cc1-c1cccc(OC)c1 (stereo not shown) the result was Mtb heat-shock: -11.25%. Cc1ccn(CCC(=O)N2CCCC2c2nnc(-c3scnc3C)o2)n1 (stereo not shown) read Mtb growth Cornell: -30.07%; Mtb heat-shock: -24.38%. CC(CNC(=O)c1cccc(C#N)c1)N1CCc2ccccc21 (stereo not shown) read Mtb growth Cornell: 4.723%; Mtb heat-shock: -4.189%. Result for CCc1ccc2c(c1)C(CCNC(=O)Cc1cccc(F)c1)C(=O)N2 (stereo not shown) was Mtb growth Cornell: 25.26%; Mtb heat-shock: 15.63%.

COCCNC(=O)N1CCOCC1c1c(C)nn(C)c1C (stereo not shown) gave Mtb growth Cornell: 15.86%; Mtb heat-shock: -7.823%. With CCn1cc(CN(C)S(=O)(=O)c2cc(Cl)ccc2Cl)cn1 the screen gave Mtb heat-shock: -9.358%. Cc1ccc(C(=O)NCCC(C)C)cc1NS(C)(=O)=O gave Mtb growth Cornell: -59.05%; Mtb heat-shock: 0.1364%. COc1ccc(C(C)N2CCC(NS(C)(=O)=O)CC2)cc1Cl (stereo not shown) gave Mtb growth Cornell: -30.13%; Mtb heat-shock: 13.16%. COc1cc(N2CCc3ncnc(-c4ccoc4)c3CC2)ncn1 read Mtb growth Cornell: -21.52%; Mtb heat-shock: -2.107%. Result for CCn1cnnc1C1CCN(C(=O)c2ccc(Cl)cc2OC)CC1 was Mtb growth Cornell: -24.4%; Mtb heat-shock: -15.85%. Cc1ccc(S(=O)(=O)NCCNC(=O)c2ccoc2)cc1F gave Mtb growth Cornell: -2.091%; Mtb heat-shock: -21.65%. With Cn1nnc(NCc2ccc(OCc3ccc(Cl)cc3)cc2)n1 the screen gave Mtb heat-shock: -10.53%.

CNC(=O)C1(C)CCCN(c2cnccn2)C1 (stereo not shown) read Mtb growth Cornell: -2.793%; Mtb heat-shock: 12.26%. With COc1ccccc1CN(C)C(=O)c1cc(CN2CCC(O)CC2)on1 the screen gave Mtb growth Cornell: -0.7588%; Mtb heat-shock: 6.928%. With Cc1nnc(NC(=O)CN2CCCC2c2noc(C3CC3)n2)s1 (stereo not shown) the screen gave Mtb growth Cornell: 1.783%; Mtb heat-shock: -7.294%. With O=C(Nc1cccc(CN2CCOC2=O)c1)N1CCOCC1 the screen gave Mtb growth Cornell: 2.065%; Mtb heat-shock: 5.349%. O=C(Cc1ccc2c(c1)CCC2)NC1CCN(Cc2ccccc2)CC1 read Mtb heat-shock: -158.5%. With COc1cc(OC)c(CNC(=O)NCC(=O)N2CCCC2)c(OC)c1 the screen gave Mtb growth Cornell: 15.39%; Mtb heat-shock: 1.248%. With CCC(C)NC(=O)CS(=O)(=O)Cc1cc(Cl)ccc1OC (stereo not shown) the screen gave Mtb growth Cornell: 5.36%; Mtb heat-shock: 0.9656%. With N#Cc1cccc(S(=O)(=O)N2CCCCC2CCN2CCCC2=O)c1 (stereo not shown) the screen gave Mtb growth Cornell: 13.55%; Mtb heat-shock: -20.76%.

With CN(C)CCN1CCCC12CCN(Cc1nccn1C)CC2.O=C(O)C(F)(F)F.O=C(O)C(F)(F)F.O=C(O)C(F)(F)F the screen gave Mtb growth Cornell: -12.39%; Mtb heat-shock: 9.162%. For Cc1ncsc1C(=O)N1CCC(c2ncncc2-c2ccnc(N)c2)C1 (stereo not shown) the result was Mtb growth Cornell: -0.8467%; Mtb heat-shock: 4.74%. With Cc1ccoc1-c1nnc(CN2CCn3c(nnc3C(C)C)C2)o1 the screen gave Mtb growth Cornell: -41.93%; Mtb heat-shock: -20.17%. [H][C@]12CC[C@]([H])(CN(S(=O)(=O)N(C)C)C1)N(C(=O)c1cnc(SC)nc1)C2 read Mtb growth Cornell: -12.06%; Mtb heat-shock: -5.765%. Result for Cc1nc(N2CCOCC2)nc2c1CCN(c1nccs1)CC2 was Mtb growth Cornell: -34.29%; Mtb heat-shock: 12.92%. For CCC(=O)NC1CCCN(C(=O)Nc2cc(-c3ccccc3)on2)C1 (stereo not shown) the result was Mtb growth Cornell: 10.16%; Mtb heat-shock: -7.772%. Result for COc1cccc(-n2c(C)cc(C(=O)O)c2C)c1 was Mtb growth Cornell: 27.41%; Mtb heat-shock: 2.395%. With O=C(O)C(F)(F)F.O=C(O)C(F)(F)F.[H][C@@]12CCN(Cc3cccc(C)n3)C[C@]1(C(=O)N1CCCO1)CCO2 the screen gave Mtb growth Cornell: 9.806%; Mtb heat-shock: 11.08%.

CC(=O)N[C@H]1CCN(C(=O)c2cc(Cn3cnc4ccccc43)[nH]n2)C1 gave Mtb heat-shock: -121.9%. Result for Cc1nn(C)c(C)c1CN1CCCC1c1nccc(CN(C)C)n1 (stereo not shown) was Mtb growth Cornell: -90.49%; Mtb heat-shock: -6.287%. With CC(C)c1nccn1CC1CCCN1Cc1nc2ccccc2n1C (stereo not shown) the screen gave Mtb heat-shock: -16.72%. O=C(CCc1ccccc1)N[C@H]1CC[C@@]2(CCC(=O)N2)CC1 read Mtb growth Cornell: 10.49%; Mtb heat-shock: -6.103%. CCOc1ccc2[nH]c(=O)c(CN3CCCC(CO)(CO)C3)cc2c1 gave Mtb growth Cornell: -7.024%; Mtb heat-shock: 7.056%. Cc1cccc(CN2CCC3(CCCN(CC(=O)N(C)C)C3)C2)n1.O=C(O)C(F)(F)F (stereo not shown) read Mtb growth Cornell: -10.65%; Mtb heat-shock: -13.43%. CCOCC(=O)Nc1ccc(N2CCSCC2)cc1C gave Mtb growth Cornell: 35.44%; Mtb heat-shock: -5.542%. Result for Cc1nc(CC(=O)NCCNc2nccc(C(F)(F)F)n2)cs1 was Mtb growth Cornell: -13.93%; Mtb heat-shock: -1.619%.

CC(=O)N[C@@H]1CN(C(=O)CC2CC2)C[C@H]1O gave Mtb growth Cornell: -10.4%; Mtb heat-shock: 7.506%. COc1nccnc1-c1cc(NC2CCCC2)nc2[nH]ccc12 read Mtb growth Cornell: 101.6%; Mtb heat-shock: 103.3%. Result for CC(C)(C)S(=O)(=O)CCNC1CSCCc2ccccc21 (stereo not shown) was Mtb growth Cornell: -7.993%; Mtb heat-shock: 19.6%. CC(=O)c1c(C)nn(S(=O)(=O)c2ccc(C)c(C)c2)c1C read Mtb heat-shock: -14.26%. With Cc1ccc(S(=O)(=O)Cc2noc([C@@H]3C[C@@H](O)CN3C)n2)cc1 the screen gave Mtb heat-shock: -16.45%. O=C(Cn1nnc(-c2ccc(F)cc2)n1)N1CCOCC(O)C1 (stereo not shown) gave Mtb growth Cornell: 0.5023%; Mtb heat-shock: 14.6%. With CCOCCN1CCC=C(C2c3nc[nH]c3CCN2C(C)=O)C1 (stereo not shown) the screen gave Mtb growth Cornell: -25.97%; Mtb heat-shock: 20.5%.

The last 4 entries again:

{"compound": "CC(=O)c1c(C)nn(S(=O)(=O)c2ccc(C)c(C)c2)c1C", "Mtb heat-shock": -14.26}
{"compound": "Cc1ccc(S(=O)(=O)Cc2noc([C@@H]3C[C@@H](O)CN3C)n2)cc1", "Mtb heat-shock": -16.45}
{"compound": "O=C(Cn1nnc(-c2ccc(F)cc2)n1)N1CCOCC(O)C1", "stereo": "stereo not shown", "Mtb growth Cornell": 0.5023, "Mtb heat-shock": 14.6}
{"compound": "CCOCCN1CCC=C(C2c3nc[nH]c3CCN2C(C)=O)C1", "stereo": "stereo not shown", "Mtb growth Cornell": -25.97, "Mtb heat-shock": 20.5}